Results reported in paper PMC9426492, “TrmB Family Transcription Factor as a Thiol-Based Regulator of Oxidative Stress Response” (mBio, 2022).
Changes are numbered by the printed parent chain. In names and notes the source's numbering stands. No constants are given. Whether binding was seen depends on the method and setting. Sequences can lack the tags named with a protein.

Experiments:
[1] = target: OxsR C24A with a C-terminal StrepII tag (Haloferax volcanii) (UniProt D4GY41); assay: reducing SDS-PAGE (intersubunit disulfide bond assay); as the non-reducing assay, but incubated with DTT (10, 100, 200 mM; 200 mM found optimal) for 25 min on ice before SDS-loading buffer, boiling and 16% SDS-PAGE; both purified
[2] = target: OxsR C24A with a C-terminal StrepII tag (Haloferax volcanii) (UniProt D4GY41); assay: non-reducing SDS-PAGE (intersubunit disulfide bond assay); purified StrepII-tagged protein dialysed overnight in 100 mM Tris-Cl pH 7.5, 2 M NaCl; no reducing reagent; diluted 1:1 in SDS-loading buffer, boiled 10 min, 16% SDS-PAGE, Coomassie stain; shows only covalently (disulfide) linked subunits; both purified
[3] = target: OxsR (HVO_2970) wild type with a C-terminal StrepII tag (Haloferax volcanii) (UniProt D4GY41); assay: condition: only with the reducing reagent DTT (200 mM found optimal); reducing SDS-PAGE (intersubunit disulfide bond assay); as the non-reducing assay, but incubated with DTT (10, 100, 200 mM; 200 mM found optimal) for 25 min on ice before SDS-loading buffer, boiling and 16% SDS-PAGE; both purified

B1: OxsR C24A with a C-terminal StrepII tag (protein, UniProt D4GY41 1-123)
chain: MADAPDMGELMETEDPNFGQVLAAVFGIQSHESRTYLALLDNPGSTVAELAEVLDRDRSNVNRSLTTLLDKGLTERKRRLLDPGGYVYQYTATPLPEAKEMMHAALDEWAEDVHARIDAFGES
- binding [1]: no binding (tested: with DTT (200 mM found optimal))
- binding [2]: no binding

B2: OxsR (HVO_2970) wild type with a C-terminal StrepII tag (natural protein, Haloferax volcanii, UniProt D4GY41 1-123, looked up)
chain: B1 chain with A24C
notes: 123 aa, 14 kDa; UniProtKB D4GY41; also called OxsR-StrepII; OxsR wt; source: H. volcanii SH125 (H26 ΔoxsR) carrying pJAM4019, purified (Strep-Tactin Superflow Plus resin, 2 M NaCl buffers); not shown: StrepII, C-terminal, kept
- binding [3]: no binding
